In article PMC7243037 one finds binding data, which are given here for one molecule.

Chains of the proteins cited; added tags and fusions are not shown.
UniProt Q3TKT4: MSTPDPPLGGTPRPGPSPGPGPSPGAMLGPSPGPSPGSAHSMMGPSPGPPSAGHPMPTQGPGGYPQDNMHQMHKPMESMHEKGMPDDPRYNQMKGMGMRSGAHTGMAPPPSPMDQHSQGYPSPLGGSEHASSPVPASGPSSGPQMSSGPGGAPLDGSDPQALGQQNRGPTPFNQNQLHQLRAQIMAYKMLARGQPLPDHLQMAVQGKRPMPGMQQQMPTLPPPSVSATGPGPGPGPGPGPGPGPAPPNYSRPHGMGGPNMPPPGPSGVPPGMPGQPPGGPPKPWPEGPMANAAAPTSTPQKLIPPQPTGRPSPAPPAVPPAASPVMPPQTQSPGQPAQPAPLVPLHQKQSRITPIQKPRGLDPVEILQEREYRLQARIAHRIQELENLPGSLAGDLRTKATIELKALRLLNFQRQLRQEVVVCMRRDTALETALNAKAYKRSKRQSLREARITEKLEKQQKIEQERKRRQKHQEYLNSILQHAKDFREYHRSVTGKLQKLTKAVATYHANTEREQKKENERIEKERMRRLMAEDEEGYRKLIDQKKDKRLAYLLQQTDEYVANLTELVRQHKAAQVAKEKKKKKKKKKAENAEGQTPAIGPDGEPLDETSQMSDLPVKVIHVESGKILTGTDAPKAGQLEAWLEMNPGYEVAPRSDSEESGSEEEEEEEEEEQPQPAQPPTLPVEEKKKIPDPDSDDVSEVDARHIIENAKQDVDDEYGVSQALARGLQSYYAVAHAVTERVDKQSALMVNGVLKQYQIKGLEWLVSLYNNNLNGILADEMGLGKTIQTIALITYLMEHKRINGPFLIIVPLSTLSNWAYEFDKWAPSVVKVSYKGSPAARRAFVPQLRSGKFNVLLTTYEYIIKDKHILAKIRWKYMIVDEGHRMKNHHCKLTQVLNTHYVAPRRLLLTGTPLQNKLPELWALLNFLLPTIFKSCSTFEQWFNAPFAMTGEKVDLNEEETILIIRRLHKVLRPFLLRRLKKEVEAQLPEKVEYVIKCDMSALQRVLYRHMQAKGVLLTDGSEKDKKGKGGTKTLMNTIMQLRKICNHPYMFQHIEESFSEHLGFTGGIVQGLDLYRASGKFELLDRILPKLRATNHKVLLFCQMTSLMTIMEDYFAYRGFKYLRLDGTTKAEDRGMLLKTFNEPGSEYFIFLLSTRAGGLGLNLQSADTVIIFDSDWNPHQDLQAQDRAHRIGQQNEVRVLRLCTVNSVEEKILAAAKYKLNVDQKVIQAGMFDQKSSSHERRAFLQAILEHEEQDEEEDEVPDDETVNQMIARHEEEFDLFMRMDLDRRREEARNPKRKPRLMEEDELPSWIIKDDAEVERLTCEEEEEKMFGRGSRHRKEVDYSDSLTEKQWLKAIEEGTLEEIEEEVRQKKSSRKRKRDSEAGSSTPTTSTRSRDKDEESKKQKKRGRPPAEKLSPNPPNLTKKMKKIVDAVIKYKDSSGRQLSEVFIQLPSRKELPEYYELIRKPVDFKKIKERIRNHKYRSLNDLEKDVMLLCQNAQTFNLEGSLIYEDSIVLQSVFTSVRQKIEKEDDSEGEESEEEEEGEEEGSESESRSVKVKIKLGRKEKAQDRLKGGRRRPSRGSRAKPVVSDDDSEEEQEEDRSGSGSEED

The target in the test is Brahma related gene 1 (Brg1), mouse (mouse (endogenous in liver)) (UniProt Q3TKT4). Briefly: Re-ChIP; sequential chromatin immunoprecipitation with two antibodies from formaldehyde cross-linked, sonicated liver chromatin of mice fed an HFHC or MCD diet; qPCR of cholesterogenic gene promoters.

No constants are given. Whether binding was seen depends on the method and setting. Some binding calls cover weakened binding; strength is not graded here.

B1: KDM3A, mouse (protein, UniProt Q6PCM1 1-1323)
chain: MVLTLGESWPVLVGKRFLSLSAAEGNEGGQDNWDLERVAEWPWLSGTIRAVSHTDVTKKDLKVCVEFDGESWRKRRWIDVYSLQRKAFLVEHNLVLAERKSPEVPEQVIQWPAIMYKSLLDKAGLGAITSVRFLGDQQSVFVSKDLLKPIQDVNSLRLSLTDNQTVSKEFQALIVKHLDESHLLQGDKNLVGSEVKIYSLDPSTQWFSATVVHGNPSSKTLQVNCEEIPALKIVDPALIHVEVVHDNFVTCGNSTRTGAVKRKSSENNGSSVSKQAKSCSEASPSMCPVQSVPTTVFKEILLGCTAATPSSKDPRQQNTPQAANSPPNIGAKLPQGCHKQNLPEELSSCLNTKPEVPRTKPDVCKEGLLSSKSSQVGAGDLKILSEPKGSCIQPKTNTDQESRLESAPQPVTGLPKECLPAKTSSKAELDIATTPELQKHLEHAASTSDDLSDKPEVKAGVTSLNSCAEKKVEPSHLGSQSQNLKETSVKVDNESCCTRSSNKTQTPPARKSVLTDPDKVRKLQQSGEAFVQDDSCVNIVAQLPKCRECRLDSLRKDKDQQKDSPVFCRFFHFRRLQFNKHGVLRVEGFLTPNKYDSEAIGLWLPLTKNVVGTDLDTAKYILANIGDHFCQMVISEKEAMSTIEPHRQVAWKRAVKGVREMCDVCDTTIFNLHWVCPRCGFGVCVDCYRMKRKNCQQGAAYKTFSWIRCVKSQIHEPENLMPTQIIPGKALYDVGDIVHSVRAKWGIKANCPCSNRQFKLFSKPALKEDLKQTSLSGEKPTLGTMVQQSSPVLEPVAVCGEAASKPASSVKPTCPTSTSPLNWLADLTSGNVNKENKEKQLTMPILKNEIKCLPPLPPLNKPSTVLHTFNSTILTPVSNNNSGFLRNLLNSSTAKTENGLKNTPKILDDIFASLVQNKTSSDSSKRPQGLTIKPSILGFDTPHYWLCDNRLLCLQDPNNKSNWNVFRECWKQGQPVMVSGVHHKLNTELWKPESFRKEFGEQEVDLVNCRTNEIITGATVGDFWDGFEDVPNRLKNDKEKEPMVLKLKDWPPGEDFRDMMPSRFDDLMANIPLPEYTRRDGKLNLASRLPNYFVRPDLGPKMYNAYGLITPEDRKYGTTNLHLDVSDAANVMVYVGIPKGQCEQEEEVLRTIQDGDSDELTIKRFIEGKEKPGALWHIYAAKDTEKIREFLKKVSEEQGQDNPADHDPIHDQSWYLDRSLRKRLYQEYGVQGWAIVQFLGDVVFIPAGAPHQVHNLYSCIKVAEDFVSPEHVKHCFWLTQEFRYLSQTHTNHEDKLQVKNVIYHAVKDAVAMLKASESSLGKP
In the case of B1, the binding result is recorded as “binds”.
